No constants are given. Whether binding was seen depends on the method and setting. In cells and extracts the contact can be indirect. Some results given as binding are weak or reduced against the parent protein; the word gives no strength.
How the values were obtained:
[1] = target: TLR4 (mouse (endogenous in bone marrow neutrophils)) (UniProt Q9QUK6); experiment: co-IP; IP with TLR4 antibody from lysates of WT and Ceacam1-/- mouse neutrophils, with or without LPS (100 ng/ml); immunoblot for TLR4, Syk, p-Syk, CEACAM1
[2] = target: Src family kinase Lyn (mouse (endogenous in bone marrow neutrophils)) (UniProt P25911); experiment: co-IP; IP with anti-Lyn antibody from WT and KO neutrophils, with or without LPS (100 ng/ml); immunoblot for Syk, CEACAM1, Lyn
[3] = target: TLR4 (mouse (endogenous in bone marrow neutrophils)) (UniProt Q9QUK6); experiment: co-IP; IP with TLR4 antibody from lysates of mouse neutrophils without LPS treatment; immunoblot for p-Syk, CEACAM1

Sequences of proteins named here, by UniProt entry; tags and fusion partners are left off. Residues count along the entry.
UniProt Q9QUK6, residues 26-835: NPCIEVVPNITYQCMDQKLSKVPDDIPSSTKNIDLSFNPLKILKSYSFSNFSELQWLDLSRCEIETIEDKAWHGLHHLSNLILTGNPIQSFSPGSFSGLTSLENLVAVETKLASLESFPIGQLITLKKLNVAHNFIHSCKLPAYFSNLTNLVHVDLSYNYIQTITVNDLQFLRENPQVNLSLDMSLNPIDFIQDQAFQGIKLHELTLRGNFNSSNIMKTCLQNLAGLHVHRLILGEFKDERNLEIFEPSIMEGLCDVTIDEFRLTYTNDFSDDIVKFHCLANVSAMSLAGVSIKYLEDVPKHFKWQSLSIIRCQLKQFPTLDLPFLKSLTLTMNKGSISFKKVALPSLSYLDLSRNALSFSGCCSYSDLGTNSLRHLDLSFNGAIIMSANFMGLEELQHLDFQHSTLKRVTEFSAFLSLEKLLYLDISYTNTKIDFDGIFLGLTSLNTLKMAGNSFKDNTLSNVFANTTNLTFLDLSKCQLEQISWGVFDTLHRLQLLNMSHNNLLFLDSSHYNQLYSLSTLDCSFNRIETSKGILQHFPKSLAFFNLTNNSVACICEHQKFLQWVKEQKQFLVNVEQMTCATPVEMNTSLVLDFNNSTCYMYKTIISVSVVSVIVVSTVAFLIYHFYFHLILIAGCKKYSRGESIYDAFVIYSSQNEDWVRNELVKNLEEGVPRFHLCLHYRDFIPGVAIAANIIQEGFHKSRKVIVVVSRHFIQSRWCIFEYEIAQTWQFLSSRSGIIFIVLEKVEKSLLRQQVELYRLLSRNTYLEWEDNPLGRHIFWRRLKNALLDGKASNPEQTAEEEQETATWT
UniProt P25911: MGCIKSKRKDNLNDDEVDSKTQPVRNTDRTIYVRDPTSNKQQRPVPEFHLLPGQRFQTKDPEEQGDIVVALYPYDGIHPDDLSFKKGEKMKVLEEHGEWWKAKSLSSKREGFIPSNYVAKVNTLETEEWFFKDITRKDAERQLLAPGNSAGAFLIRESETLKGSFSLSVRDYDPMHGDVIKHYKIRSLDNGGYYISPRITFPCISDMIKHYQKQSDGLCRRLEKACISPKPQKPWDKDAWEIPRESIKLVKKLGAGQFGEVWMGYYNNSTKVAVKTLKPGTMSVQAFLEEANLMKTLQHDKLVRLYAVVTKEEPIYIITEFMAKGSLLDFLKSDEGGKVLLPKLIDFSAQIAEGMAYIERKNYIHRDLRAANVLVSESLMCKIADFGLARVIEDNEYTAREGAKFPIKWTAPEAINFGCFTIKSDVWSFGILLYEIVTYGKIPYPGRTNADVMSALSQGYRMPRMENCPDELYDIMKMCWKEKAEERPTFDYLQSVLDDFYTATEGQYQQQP

- binding [1]: binds
- binding [2]: binds
B1: CEACAM1 (receptor, UniProt P31809 35-521)
chain: EVTIEAVPPQVAEDNNVLLLVHNLPLALGAFAWYKGNTTAIDKEIARFVPNSNMNFTGQAYSGREIIYSNGSLLFQMITMKDMGVYTLDMTDENYRRTQATVRFHVHPILLKPNITSNNSNPVEGDDSVSLTCDSYTDPDNINYLWSRNGESLSEGDRLKLSEGNRTLTLLNVTRNDTGPYVCETRNPVSVNRSDPFSLNIIYGPDTPIISPSDIYLHPGSNLNLSCHAASNPPAQYFWLINEKPHASSQELFIPNITTNNSGTYTCFVNNSVTGLSRTTVKNITVLEPVTQPFLQVTNTTVKELDSVTLTCLSNDIGANIQWLFNSQSLQLTERMTLSQNNSILRIDPIKREDAGEYQCEISNPVSVRRSNSIKLDIIFDPTQGGLSDGAIAGIVIGVVAGVALIAGLAYFLYSRKSGGGSDQRDLTEHKPSTSNHNLAPSDNSPNKVDDVAYTVLNFNSQQPNRPTSAPSSPRATETVYSEVKKK
- binding [3]: no binding (condition: neutrophils without LPS)

— publication PMC3320586
